Values of other authors, collected in US7150886B2, “Composition for treating diseased liver” (Industrial Technology Research Institute, priority 2002, dated 2006).
For at least one compound, name, drawing or mass did not settle the structure.

Tested on: B type hepatitis
Details: treating B type hepatitis; cited from earlier work

Nc1ccn([C@@H]2CS[C@H](CO)O2)c(=O)n1 [lamivudine]
positive response: 17 to 33%
